This is one part of the list. Most values lie at the level of the controls, where differences are scatter.

Common to all, as to details: 5 µM; treatment: days 7-14 after plating, readout day 21
Test [1] concerns hPSC-derived cortical neurons (WA09). Description: nucleus area z-score vs screen plate; higher = larger nuclei (more mature).
The test system is the same in test [2]. Description: total neurite length per nucleus (MAP2) z-score; higher = more neurite growth.
For test [3] the test system is unchanged. Nature of the test: nucleus roundness z-score vs screen plate; higher = rounder nuclei (more mature).
For test [4] the test system is unchanged. Nature of the test: KCl-induced FOS+/EGR-1+ double-positive nuclei fraction z-score (KCl minus unstimulated); higher = stronger activity-induced IEG response.

In test [1], `CC(=O)OCC(CCn1cnc2cnc(N)nc21)COC(C)=O` [Famciclovir] displayed a nucleus area z-score of 0.217. The “total neurite length per nucleus (z-score)” value in test [2] was 0.896. For the same molecule, the nucleus roundness z-score in test [3] came out at 0.654. The “KCl-induced FOS+/EGR-1+ double-positive nuclei fraction z-score” value in test [4] is 2.38.
On the same counts, the results for `Cn1c(=O)cc(N2CCC[C@@H](N)C2)n(Cc2cc(F)ccc2C#N)c1=O` [Trelagliptin] are 0.858, 0.108, 0.249 and 0.919.
On the same counts, the results for `CN1CCN(CCOc2cc(OC3CCOCC3)c3c(Nc4c(Cl)ccc5c4OCO5)ncnc3c2)CC1` [Saracatinib (AZD0530)] are 1.09, 0.316, -0.361 and -0.644.
Turning to `NS(=O)(=O)c1cc(C(=O)O)c(NCc2ccco2)cc1Cl` [Furosemide], the nucleus area z-score in test [1] was -0.17. In test [2], the “total neurite length per nucleus (z-score)” value was -0.351. Moreover, in test [3], the nucleus roundness z-score is -0.745. The “KCl-induced FOS+/EGR-1+ double-positive nuclei fraction z-score” value in test [4] was determined as 1.09.
As for `Nc1nc2c(ncn2COCCO)c(=O)[nH]1` [Aciclovir], the nucleus area z-score in test [1] was -0.209. Besides, the “total neurite length per nucleus (z-score)” value in test [2] was 0.0446. The molecule further showed a nucleus roundness z-score in test [3] of 0.268. Besides, the “KCl-induced FOS+/EGR-1+ double-positive nuclei fraction z-score” value in test [4] was -0.513.
With `CC(C)OC(=O)C(C)(C)Oc1ccc(C(=O)c2ccc(Cl)cc2)cc1` [Fenofibrate], the nucleus area z-score in test [1] came out at 0.0214. Also, the “total neurite length per nucleus (z-score)” value in test [2] is -0.133. This molecule also gave a nucleus roundness z-score in test [3] of 0.0568. For the same molecule, in test [4], the “KCl-induced FOS+/EGR-1+ double-positive nuclei fraction z-score” value is 0.297.
In the case of `COc1cc2c(c(OC)c1OC)-c1c(cc3c(c1OC)OCO3)CC(C)C(C)C2` (stereo not drawn) [Schisandrin B (Sch B)], the nucleus area z-score in test [1] is -0.545. Besides, the “total neurite length per nucleus (z-score)” value in test [2] is -0.203. The nucleus roundness z-score in test [3] worked out at 0.177. Moreover, the “KCl-induced FOS+/EGR-1+ double-positive nuclei fraction z-score” value in test [4] was -0.568.
On the same counts, the results for `NCCCCCC(=O)O` [_6-__-_Aminocaproic acid] are 0.835, 1.14, 0.257 and 2.67.
As to `CCCCCOC(=O)Nc1nc(=O)n([C@@H]2O[C@H](C)[C@@H](O)[C@H]2O)cc1F` [Capecitabine], in test [1], the nucleus area z-score came out at 1.02. The “total neurite length per nucleus (z-score)” value in test [2] was determined as 0.0162. Also, the nucleus roundness z-score in test [3] is 0.469. Further, the “KCl-induced FOS+/EGR-1+ double-positive nuclei fraction z-score” value in test [4] was 1.39.
On the same counts, the results for `O=C(/C=C/c1ccc2ccccc2n1)c1ccncc1` are 0.788, 2.11, -0.00854 and 0.851.
For `CO[C@H]1/C=C/O[C@@]2(C)Oc3c(C)c(O)c4c(O)c(c5c(nc6cc(C)ccn65)c4c3C2=O)NC(=O)/C(C)=C\C=C\[C@H](C)[C@H](O)[C@@H](C)[C@@H](O)[C@@H](C)[C@H](OC(C)=O)[C@@H]1C` [Rifaximin] the same measures were 0.476, -0.0711, -0.181 and 0.662.
For `CCOC(=O)[C@H]1O[C@@H]1C(=O)N[C@@H](CC(C)C)C(=O)NCCC(C)C` [Aloxistatin] the same measures were -0.458, 0.56, 1.01 and -0.203.
On to `Cc1cc(/C=C/C#N)cc(C)c1Nc1ccnc(Nc2ccc(C#N)cc2)n1` [Rilpivirine], for which, in test [1], the nucleus area z-score was found to be 0.839. The “total neurite length per nucleus (z-score)” value in test [2] worked out at 1.45. In test [3], this molecule yielded a nucleus roundness z-score of 0.728. In addition, the “KCl-induced FOS+/EGR-1+ double-positive nuclei fraction z-score” value in test [4] stood at 0.131.
On the same counts, the results for `O=C(O)P(=O)(O)O` [Foscarnet Sodium] are 0.00333, 0.801, 0.334 and 0.463.
Consider `COc1ccc(/C=C/C(=O)Nc2ccccc2C(=O)O)cc1OC` [Tranilast], for which the nucleus area z-score in test [1] is 0.183. In addition, the “total neurite length per nucleus (z-score)” value in test [2] was -0.266. The nucleus roundness z-score in test [3] is -0.569. Further, the “KCl-induced FOS+/EGR-1+ double-positive nuclei fraction z-score” value in test [4] was determined as 0.56.
On the same counts, the results for `Cc1ccccc1-n1c(Cn2nc(-c3cccc(O)c3)c3c(N)ncnc32)nc2cccc(C)c2c1=O` are -0.801, 0.438, 0.159 and 0.34.
On the same counts, the results for `Cc1nnc(NS(=O)(=O)c2ccc(N)cc2)s1` [Sulfamethizole] are -0.832, -0.578, -0.897 and 0.419.

The values above are taken from the supplement of paper PMC11348887.
